Laboratory results published in patent US8754049B2 (APEPTICO Forschung und Entwicklung GmbH, priority 2010, dated 2014).
The same purity stands for every peptide and may come from a single statement. For some assays here: Strings that start with PEPTIDE1 are HELM notation: dots part the residues, brackets hold end groups and non-standard residues.

Experiment: general procedure: Fmoc solid-phase peptide synthesis
Conditions: whole synthesis, reverse HPLC, trifluoroacetic acid salt, head-to-tail ring
In the case of “[6-amino-hexanoic acid-GQRETPEGAEAKPWYG]”, the “final HPLC purity” value is reported as “more than 95%”.

Experiment: peptide synthesis
Conditions: whole synthesis, trifluoroacetic acid salt
For “PEPTIDE1{K.G.Q.R.E.T.P.E.G.A.E.A.K.P.W.Y.G}$PEPTIDE1,PEPTIDE1,1:R3-17:R2$$$V2.0”, the “final HPLC purity” value was “more than 95%”.
With “PEPTIDE1{[Ahp].G.Q.R.E.T.P.E.G.A.E.A.K.P.W.Y}$PEPTIDE1,PEPTIDE1,1:R1-16:R2$$$V2.0” the “final HPLC purity” value was “more than 95%”.
With “PEPTIDE1{[Ava].G.Q.R.E.T.P.E.G.A.E.A.K.P.W.Y.G}$PEPTIDE1,PEPTIDE1,1:R1-17:R2$$$V2.0” the “final HPLC purity” value was “more than 95%”.
With “PEPTIDE1{[GABA].G.Q.R.E.T.P.E.G.A.E.A.K.P.W.Y.D}$PEPTIDE1,PEPTIDE1,1:R1-17:R3$$$V2.0” the “final HPLC purity” value was “more than 95%”.
In the case of “PEPTIDE1{[GABA].G.Q.R.E.T.P.E.G.A.E.A.K.P.W.Y.G}$PEPTIDE1,PEPTIDE1,1:R1-17:R2$$$V2.0”, the “final HPLC purity” value is reported as “more than 95%”.
With “PEPTIDE1{[Orn].G.Q.R.E.T.P.E.G.A.E.A.K.P.W.Y.G}$PEPTIDE1,PEPTIDE1,1:R3-17:R2$$$V2.0” the “final HPLC purity” value was “more than 95%”.
With “PEPTIDE1{[bAla].G.Q.R.E.T.P.E.G.A.E.A.K.P.W.Y.E}$PEPTIDE1,PEPTIDE1,1:R1-17:R3$$$V2.0” the “final HPLC purity” value was “more than 95%”.
